The other results are listed elsewhere or left out. Repeats in this data set agree poorly, so a single value says little.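 Flies heterozygous for the ATM8 allele over a balancer chromosome carrying normal ATM were mated with each other on treated food. Parents laid eggs for 5–6 days and the young then developed for about 12 days, so both parents and larvae ate the compound. The read-out is the share of all emerged adults that carry two ATM8 copies, compared with 2% DMSO control vials. The paper called compounds neutral at 10–20% such offspring, harmful below 10%, and helpful above 20%.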
Test system: Drosophila melanogaster ATM8 (temperature-sensitive ATM allele)
Test: fraction of eclosed F1 progeny that are homozygous ATM8 (rescue of developmental lethality); higher = more rescue of ATM8 developmental lethality; extreme values may be limits of the assay
Details: compound concentration applied to food 0.2 mM; 21 °C

| SMILES | fraction of eclosed F1 progeny that are homozygous ATM8 |
| --- | --- |
| COc1cc(OC)c2c(=O)c(O)c(-c3ccc(OC)c(OC)c3)oc2c1 | 0.128 |
| C=C(C)c1cc2cc(C(C)=O)c(O)cc2o1 | 0.0508 |
| CO[C@H]1[C@@H](O)[C@@H](C)O[C@@H](O[C@H]2CC[C@]3(C)[C@H]4CC[C@]5(C)[C@@H](C6=CC(=O)OC6)CC[C@]5(O)[C@@H]4CC[C@]3(O)C2)[C@@H]1O | 0.143 |
| CCCCCCCCCCCCCCCC(=O)OC[C@@H](NC(=O)C(Cl)Cl)[C@H](O)c1ccc([N+](=O)[O-])cc1 | 0.0357 |
| O=C(O)/C=C/c1ccc(O)c(O)c1 | 0.118 |
| Clc1ccc(Cn2c(CN3CCCC3)nc3ccccc32)cc1 | 0.179 |
| COc1cc2nc(N(C)CCCNC(=O)C3CCCO3)nc(N)c2cc1OC (stereo not given) | 0.0714 |
| C[N+](C)(C)CCCCCCCCCC[N+](C)(C)C | 0.174 |
| c1ccc2nc(N3CCNCC3)ccc2c1 | 0 |
| C[N+]1(C)[C@@H]2CC[C@H]1C[C@@H](OC(=O)C(CO)c1ccccc1)C2 (stereo not given in full) | 0 |
| O=C1c2ccccc2C(=O)C1c1ccc(Cl)cc1 | 0.273 |
| C#C[C@]1(OC(C)=O)CC[C@H]2[C@@H]3CCC4=CC(=NO)CC[C@@H]4[C@H]3CC[C@@]21CC (mixture of isomers) | 0.0682 |
| Clc1ccc(CO/N=C(\Cn2ccnc2)c2ccc(Cl)cc2Cl)c(Cl)c1 | 0.0294 |
| CC(=O)O[C@]1(C(C)=O)CC[C@H]2[C@@H]3C=C(Cl)C4=CC(=O)[C@@H]5C[C@@H]5[C@]4(C)[C@H]3CC[C@@]21C | 0.158 |
| N[C@@H]1CONC1=O | 0 |
| O=C(O)COCCN1CCN(C(c2ccccc2)c2ccc(Cl)cc2)CC1 (stereo not given) | 0.0435 |
| CCCCC(CC)CCC(CC(C)C)OS(=O)(=O)O (stereo not given) | 0.2 |
| CN1C[C@H](C(=O)N[C@]2(C)O[C@@]3(O)[C@@H]4CCCN4C(=O)[C@H](Cc4ccccc4)N3C2=O)C[C@@H]2c3cccc4[nH]cc(c34)C[C@H]21 | 0.0435 |
| CCc1c(C)[nH]c2c1C(=O)C(CN1CCOCC1)CC2 (stereo not given) | 0.222 |
| CC(=O)OC1CN2CCC1CC2 (stereo not given) | 0.192 |
| CCC1(c2ccccc2)NC(=O)N(C)C1=O (stereo not given) | 0.238 |
| CC1=C(C(=O)O)N2C(=O)[C@@H](NC(=O)[C@H](N)C3=CCC=CC3)[C@H]2SC1 | 0.118 |
| N[C@@H](CCC(=O)N[C@@H](CS)C(=O)NCC(=O)O)C(=O)O | 0 |
| COc1cc(C(=O)NCCCCCC(=O)O)cc(OC)c1OC | 0.0333 |
| COC(=O)C1OC(=O)C2OC23C1(C)CCC1C2(C)C(OC(C)=O)CC(OC(C)=O)C(C)(C)C2CC(O)C13C (stereo not given) | 0.0408 |

15 entries from above, reformatted.
SMILES,fraction of eclosed F1 progeny that are homozygous ATM8
c1ccc2nc(N3CCNCC3)ccc2c1,0
C[N+]1(C)[C@@H]2CC[C@H]1C[C@@H](OC(=O)C(CO)c1ccccc1)C2 (stereo not given in full),0
O=C1c2ccccc2C(=O)C1c1ccc(Cl)cc1,0.273
C#C[C@]1(OC(C)=O)CC[C@H]2[C@@H]3CCC4=CC(=NO)CC[C@@H]4[C@H]3CC[C@@]21CC (mixture of isomers),0.0682
Clc1ccc(CO/N=C(\Cn2ccnc2)c2ccc(Cl)cc2Cl)c(Cl)c1,0.0294
CC(=O)O[C@]1(C(C)=O)CC[C@H]2[C@@H]3C=C(Cl)C4=CC(=O)[C@@H]5C[C@@H]5[C@]4(C)[C@H]3CC[C@@]21C,0.158
N[C@@H]1CONC1=O,0
O=C(O)COCCN1CCN(C(c2ccccc2)c2ccc(Cl)cc2)CC1 (stereo not given),0.0435
CCCCC(CC)CCC(CC(C)C)OS(=O)(=O)O (stereo not given),0.2
CN1C[C@H](C(=O)N[C@]2(C)O[C@@]3(O)[C@@H]4CCCN4C(=O)[C@H](Cc4ccccc4)N3C2=O)C[C@@H]2c3cccc4[nH]cc(c34)C[C@H]21,0.0435
CCc1c(C)[nH]c2c1C(=O)C(CN1CCOCC1)CC2 (stereo not given),0.222
CC(=O)OC1CN2CCC1CC2 (stereo not given),0.192
CCC1(c2ccccc2)NC(=O)N(C)C1=O (stereo not given),0.238
CC1=C(C(=O)O)N2C(=O)[C@@H](NC(=O)[C@H](N)C3=CCC=CC3)[C@H]2SC1,0.118
N[C@@H](CCC(=O)N[C@@H](CS)C(=O)NCC(=O)O)C(=O)O,0

Following part

| SMILES | fraction of eclosed F1 progeny that are homozygous ATM8 |
| --- | --- |
| COc1cc2c3cc1Oc1cc(ccc1O)C[C@@H]1c4c(cc(OC)c(O)c4Oc4ccc(cc4)C[C@@H]3N(C)CC2)CC[N+]1(C)C | 0.0488 |
| CC(CCc1ccccc1)NC(C)C(O)c1ccc(O)cc1 (stereo not given) | 0.116 |
| COc1cccc(C2(O)CCCCC2CN(C)C)c1 (stereo not given) | 0 |
| CC1(C)[C@H](C(=O)O)N2C(=O)C[C@H]2S1(=O)=O | 0.0909 |
| Cc1ncc(CO)c(CO)c1O | 0.0566 |
| CC1=C(/C=C/C(C)=C/C=C/C(C)=C/C=C/C=C(C)/C=C/C=C(C)/C=C/C2=C(C)C(=O)[C@@H](O)CC2(C)C)C(C)(C)C[C@H](O)C1=O | 0.147 |
| CC(=O)Oc1ccccc1C(=O)O | 0.0222 |
| Cc1cc(=O)oc2cc(O)cc(O)c12 | 0.0789 |
| O=c1cc(-c2ccccc2)oc2cc(O)ccc12 | 0.156 |
| CC1=C(/C=C/C(C)=C/C=C/C(C)=C/C(=O)O)C(C)(C)CCC1 | 0.17 |
| NC[C@@H]1CC[C@@H](N)[C@@H](O[C@H]2[C@H](O)[C@@H](O[C@H]3O[C@H](CO)[C@@H](O)[C@H](N)[C@H]3O)[C@H](N)C[C@@H]2N)O1 | 0.231 |
| C[N+]1(C)[C@@H]2CC[C@H]1C[C@@H](OC(=O)C(O)c1ccccc1)C2 (stereo not given in full) | 0.174 |
| COc1ccc2c(c1)OC/C(=C\c1ccc(OC)c(O)c1)C2=O | 0.153 |
| COC(=O)C1=C(C)NC(C)=C(C(=O)OCCN2CCN(C(c3ccccc3)c3ccccc3)CC2)C1c1cccc([N+](=O)[O-])c1 (stereo not given) | 0.0182 |
| CC(=O)Nc1ccccc1 | 0.2 |
| COC(=O)[C@H]1[C@H]2C[C@H]3c4[nH]c5ccccc5c4CCN3C[C@@H]2CC[C@@H]1O | 0.0682 |
| C[C@H]1COc2c(C3(N)CC3)c(F)cc3c(=O)c(C(=O)O)cn1c23 | 0.0833 |
| CC(C(=O)O)c1ccc2c(c1)Cc1cccnc1O2 (stereo not given) | 0.0811 |
| CSc1ccc2c(c1)C(N1CCN(C)CC1)Cc1ccccc1S2 (stereo not given) | 0.098 |
| Cc1cc(C(C)(C)C)c(O)c(C)c1CC1=NCCN1 | 0.17 |
| CN(C)CCCN1c2ccccc2Sc2ccccc21 | 0.216 |
| COc1ccc2c(=O)ccoc2c1 | 0.0476 |
| C=CC(C1=CC(=O)C=CC1=O)c1ccccc1 (stereo not given) | 0.0682 |
| CC(=O)Oc1c[nH]c2ccccc12 | 0.167 |
| COc1ccc([C@@H]2CC(=O)c3c(O)cc(O[C@@H]4O[C@H](CO[C@@H]5O[C@@H](C)[C@H](O)[C@@H](O)[C@H]5O)[C@@H](O)[C@H](O)[C@H]4O)cc3O2)cc1O | 0.135 |

— the supplement of paper PMC5770031
